Screening data, single-dose tests

The chains behind the UniProt entries cited, without tags or fusion partners. Residues count along the entry.
UniProt P9WPC5, whole entry: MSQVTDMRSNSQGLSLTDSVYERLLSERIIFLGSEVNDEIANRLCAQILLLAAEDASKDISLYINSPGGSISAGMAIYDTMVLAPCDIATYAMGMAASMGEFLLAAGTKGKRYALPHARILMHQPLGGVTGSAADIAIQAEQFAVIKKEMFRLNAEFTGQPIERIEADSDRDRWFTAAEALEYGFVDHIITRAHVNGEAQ
UniProt P9WPC3, whole entry partner: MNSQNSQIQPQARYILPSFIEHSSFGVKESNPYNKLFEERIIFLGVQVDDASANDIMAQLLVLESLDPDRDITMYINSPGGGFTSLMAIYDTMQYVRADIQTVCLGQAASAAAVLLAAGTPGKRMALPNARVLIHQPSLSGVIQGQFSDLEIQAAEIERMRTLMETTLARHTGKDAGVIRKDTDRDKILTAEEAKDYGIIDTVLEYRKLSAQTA
UniProt I6X8D2, whole entry: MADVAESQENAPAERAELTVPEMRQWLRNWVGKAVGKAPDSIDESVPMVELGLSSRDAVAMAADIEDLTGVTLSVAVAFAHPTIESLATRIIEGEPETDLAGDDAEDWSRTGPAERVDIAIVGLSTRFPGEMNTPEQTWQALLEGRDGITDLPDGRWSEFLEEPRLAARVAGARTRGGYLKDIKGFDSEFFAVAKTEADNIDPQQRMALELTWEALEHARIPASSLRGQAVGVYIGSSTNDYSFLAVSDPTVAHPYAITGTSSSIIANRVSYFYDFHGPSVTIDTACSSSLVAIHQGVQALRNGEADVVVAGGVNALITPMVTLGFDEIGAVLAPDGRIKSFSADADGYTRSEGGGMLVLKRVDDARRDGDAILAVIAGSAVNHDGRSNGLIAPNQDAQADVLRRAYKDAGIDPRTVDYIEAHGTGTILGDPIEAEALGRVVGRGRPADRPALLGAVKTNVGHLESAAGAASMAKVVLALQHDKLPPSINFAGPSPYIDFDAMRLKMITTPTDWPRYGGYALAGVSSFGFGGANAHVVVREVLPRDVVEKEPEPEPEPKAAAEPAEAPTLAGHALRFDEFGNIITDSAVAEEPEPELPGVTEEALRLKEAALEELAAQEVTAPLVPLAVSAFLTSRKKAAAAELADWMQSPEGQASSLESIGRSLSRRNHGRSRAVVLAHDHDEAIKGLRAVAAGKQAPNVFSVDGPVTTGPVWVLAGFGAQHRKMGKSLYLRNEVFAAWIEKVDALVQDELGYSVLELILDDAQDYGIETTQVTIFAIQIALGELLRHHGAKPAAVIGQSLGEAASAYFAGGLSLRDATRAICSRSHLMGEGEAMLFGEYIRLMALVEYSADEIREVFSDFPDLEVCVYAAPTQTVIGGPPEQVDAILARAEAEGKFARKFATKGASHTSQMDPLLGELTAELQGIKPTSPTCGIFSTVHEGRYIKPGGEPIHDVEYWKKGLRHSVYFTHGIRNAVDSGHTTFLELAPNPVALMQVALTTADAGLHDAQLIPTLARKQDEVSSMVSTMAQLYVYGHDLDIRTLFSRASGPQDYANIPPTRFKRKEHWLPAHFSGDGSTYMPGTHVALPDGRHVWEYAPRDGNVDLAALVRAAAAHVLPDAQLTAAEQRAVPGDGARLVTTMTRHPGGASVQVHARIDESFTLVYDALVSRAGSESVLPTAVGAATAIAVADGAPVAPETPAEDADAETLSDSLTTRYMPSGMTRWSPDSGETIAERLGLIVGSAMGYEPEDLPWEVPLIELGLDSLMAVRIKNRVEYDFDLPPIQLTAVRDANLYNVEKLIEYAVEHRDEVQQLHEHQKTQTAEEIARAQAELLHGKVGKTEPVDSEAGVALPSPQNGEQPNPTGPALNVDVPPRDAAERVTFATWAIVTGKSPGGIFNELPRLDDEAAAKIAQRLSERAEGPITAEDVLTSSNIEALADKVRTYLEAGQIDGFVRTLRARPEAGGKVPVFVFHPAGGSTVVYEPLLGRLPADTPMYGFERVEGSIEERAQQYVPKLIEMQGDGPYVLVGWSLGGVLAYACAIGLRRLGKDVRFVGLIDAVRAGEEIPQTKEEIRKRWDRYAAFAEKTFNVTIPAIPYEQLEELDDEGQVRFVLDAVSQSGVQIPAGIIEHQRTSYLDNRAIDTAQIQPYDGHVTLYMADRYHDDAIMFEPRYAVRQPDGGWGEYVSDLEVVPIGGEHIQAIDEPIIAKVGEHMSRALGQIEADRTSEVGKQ
UniProt P9WNZ1, whole entry: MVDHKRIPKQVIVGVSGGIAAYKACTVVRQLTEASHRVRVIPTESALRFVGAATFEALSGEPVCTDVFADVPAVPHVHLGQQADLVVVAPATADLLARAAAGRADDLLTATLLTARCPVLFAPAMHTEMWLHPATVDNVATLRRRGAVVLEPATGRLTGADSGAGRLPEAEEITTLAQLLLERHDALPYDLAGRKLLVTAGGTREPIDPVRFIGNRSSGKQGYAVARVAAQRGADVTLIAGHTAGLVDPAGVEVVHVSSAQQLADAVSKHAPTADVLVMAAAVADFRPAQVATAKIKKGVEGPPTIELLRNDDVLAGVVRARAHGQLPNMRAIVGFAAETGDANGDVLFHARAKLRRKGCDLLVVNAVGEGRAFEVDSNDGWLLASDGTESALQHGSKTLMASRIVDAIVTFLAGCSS
UniProt A4I591, 1-473: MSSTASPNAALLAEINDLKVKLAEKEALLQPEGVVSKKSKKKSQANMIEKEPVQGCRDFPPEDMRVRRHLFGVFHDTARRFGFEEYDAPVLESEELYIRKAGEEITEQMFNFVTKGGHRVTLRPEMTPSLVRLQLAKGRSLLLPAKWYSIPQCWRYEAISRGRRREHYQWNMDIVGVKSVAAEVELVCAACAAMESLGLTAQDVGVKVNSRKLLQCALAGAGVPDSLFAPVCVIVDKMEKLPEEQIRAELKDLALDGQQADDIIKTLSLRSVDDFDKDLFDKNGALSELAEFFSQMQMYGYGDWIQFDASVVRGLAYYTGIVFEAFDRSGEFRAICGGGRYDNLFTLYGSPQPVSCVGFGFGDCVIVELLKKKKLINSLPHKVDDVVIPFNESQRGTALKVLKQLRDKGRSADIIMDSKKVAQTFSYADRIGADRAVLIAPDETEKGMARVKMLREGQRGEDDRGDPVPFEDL
UniProt Q4DA54, 1-478: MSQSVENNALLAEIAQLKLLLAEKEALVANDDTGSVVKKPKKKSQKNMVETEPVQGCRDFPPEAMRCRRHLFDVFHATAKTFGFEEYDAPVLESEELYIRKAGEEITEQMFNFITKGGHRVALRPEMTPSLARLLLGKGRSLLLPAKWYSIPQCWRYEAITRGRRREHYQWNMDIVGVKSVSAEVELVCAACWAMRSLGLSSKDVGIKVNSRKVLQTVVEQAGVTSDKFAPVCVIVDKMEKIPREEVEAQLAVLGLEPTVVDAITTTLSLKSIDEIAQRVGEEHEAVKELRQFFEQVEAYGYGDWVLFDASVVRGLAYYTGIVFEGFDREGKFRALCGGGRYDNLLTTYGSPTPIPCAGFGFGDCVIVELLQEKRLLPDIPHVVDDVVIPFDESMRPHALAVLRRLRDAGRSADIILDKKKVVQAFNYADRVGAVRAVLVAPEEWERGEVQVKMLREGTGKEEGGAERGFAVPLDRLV

Each number is a percent effect as filed. How 0% and 100% were set is not recorded. Most values in the screen are low, and negative values occur. This is an unselected part of the compounds tested. A dash means the value is not listed here; it may have been measured.

ClpP1P2: 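Protease assay of ClpP1P2, read by the AMC dye that it sets free. Target: ClpP1P2, Mycobacterium tuberculosis (UniProt P9WPC5 and UniProt P9WPC3). Compounds at 50 µM. Higher reads as stronger inhibition, judged from the few compounds that gave an IC50. Most other retested compounds had strongly negative values. About 69,000 compounds were tested under these conditions; 0.015% (about 10) showed 50% or more at least once.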
Pks13 thioesterase: 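Polyketide synthase Pks13, Mycobacterium tuberculosis (UniProt I6X8D2). Enzyme assay of the thioesterase domain of polyketide synthase 13; the read-out is not stated. Compounds at 30 µM. Higher reads as stronger inhibition (inferred from which compounds were picked for retests). Of about 67,000 compounds tested this way, about 300 (0.46%) reached 50% or more in at least one test.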
CoaBC: 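Enzyme assay of CoaBC with a phosphate dye (Biomol Green) read at 650 nm. Target: Coenzyme A biosynthesis protein CoaBC, Mycobacterium tuberculosis (UniProt P9WNZ1). Tested at 30 µM. Direction is inferred from only a few compounds that gave an IC50; most scored high, so higher reads as stronger inhibition. Most strong results did not repeat in a second test. About 67,000 compounds were tested under these conditions; 0.06% (about 40) showed 50% or more at least once.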
LiHisRS: 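Histidine-tRNA ligase, Leishmania infantum (UniProt A4I591). Enzyme assay of histidyl-tRNA synthetase; the read-out is not stated. Compounds at 30 µM. The record gives no direction; compounds that gave an IC50 in retests scored well above the rest, so higher reads as stronger inhibition. The assay is labelled LdHisRS but filed under L. infantum. Of about 69,000 compounds tested this way, about 410 (0.6%) reached 50% or more in at least one test.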
TcHisRS: 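Histidine-tRNA ligase, Trypanosoma cruzi CL Brener (UniProt Q4DA54). Enzyme assay of histidyl-tRNA synthetase; the read-out is not stated. Compounds at 30 µM. The record gives no direction; compounds that gave an IC50 in retests scored well above the rest, so higher reads as stronger inhibition. Size under these conditions: about 69,000 compounds, about 31 of them at 50% or above in at least one test.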

| # | SMILES | ClpP1P2 | Pks13 thioesterase | CoaBC | LiHisRS | TcHisRS |
|---|---|---|---|---|---|---|
| 1 | `CCc1noc(C(C)N(C)CC(=O)Nc2cccc(C)n2)n1` (centres unmarked) | -15.07 | -5.69 | 1.493 | 0 | 3.306 |
| 2 | `CCc1ncc2c(n1)CN(CCCc1nc3ccccc3o1)CC2` | -27.99 | -3.032 | 9.773 | 23.21 | 22.48 |
| 3 | `COC1CCN(c2ccc(F)cc2CN(C)C(C)C(N)=O)CC1` (centres unmarked) | -2.821 | -6 | 5.718 | 6.667 | 3.478 |
| 4 | `CCCS(=O)(=O)N1CCC2(CN(c3ccsc3)C(=O)CN2C)C1` (centres unmarked) | 8.618 | - | 10.97 | 17.31 | 2.674 |
| 5 | `CCc1ccc(S(=O)(=O)N2CCCn3ncnc32)s1` | 9.315 | -10.13 | 2.02 | 20.21 | 10.1 |
| 6 | `COCCN1CCN(S(C)(=O)=O)Cc2ccc(C)nc21` | -7.605 | 6.198 | -0.6148 | 6 | -2.299 |
| 7 | `NCC1Cn2nnc(-c3cccc(F)c3)c2CO1` (centres unmarked) | -3.413 | -13.59 | -31.82 | 2.83 | 2.51 |
| 8 | `CC(c1ccc(Br)cc1)N1CCCN(C(N)=O)CC1` (centres unmarked) | -8.86 | -10.77 | 2.581 | 4.301 | -0.5181 |
| 9 | `COc1cccc(Cn2cc(C3=CCN(CC(=O)N(C)C)CC3)cn2)c1` | -0.6269 | -12.51 | 8.642 | 9.79 | 6.468 |
| 10 | `NC(=O)c1cnn2c1NCC(CNCCCOc1ccccc1F)C2` (centres unmarked) | 6.929 | -11.25 | -2.128 | 29.6 | 7.985 |
| 11 | `CCCc1nc(NCCCO)c2c(n1)c(C)nn2CC` | -1.337 | -20.72 | 0.6729 | 13.59 | -1.639 |
| 12 | `Cc1noc([C@H]2C[C@H]3OCC[C@H]3N(C3CCC3)C2)n1` | -3.293 | 0.3431 | -4.039 | -1.064 | 5.025 |
| 13 | `N[C@H]1CN(C(=O)CCc2cc(Cl)no2)C[C@@H]1c1ccccc1` | 5.336 | -17.53 | 8.654 | 20.83 | 3.797 |
| 14 | `Cc1cc(C(NC(=O)CNS(C)(=O)=O)C(C)C)c(C)s1` (centres unmarked) | -22.89 | -10.23 | -6.075 | 0.885 | 4.867 |
| 15 | `O=C(NCc1cccnc1)Nc1cc(C(F)(F)F)c[nH]c1=O` | -44.37 | -6.446 | 4.859 | 16.51 | 8.235 |
| 16 | `Cc1nc(-c2nc(C(=O)N3CCOCC3)c3ccccn23)cn1C(C)C` | -337 | -18.56 | 7.818 | 40 | 7.843 |
| 17 | `CCc1ncc(C(=O)N2CCOCC2c2c(C)n[nH]c2C)s1` (centres unmarked) | 0.06353 | -10.78 | 0.5181 | 2.128 | -0.7634 |
| 18 | `CCS(=O)(=O)N1C[C@H]2CN(Cc3cccnc3)C(=O)[C@H]2C1` | 13.01 | -4.498 | -6.004 | 0 | 10.16 |
| 19 | `N#Cc1ccc(CN2CCCCC2Cn2cncn2)c(F)c1` (centres unmarked) | 9.358 | -22.58 | -6.087 | 4.712 | 2.674 |
| 20 | `Cc1nc(C2CN(C)CCO2)cc(N2CCC(CO)CC2)n1` (centres unmarked) | 7.049 | -0.2154 | -4.585 | 14 | 4.494 |
| 21 | `CC(C(=O)NCc1ccc(N2CCCCCC2)nc1)n1cncn1` (centres unmarked) | -8.272 | -8.55 | 8.772 | 7.143 | 2.907 |
| 22 | `O=C(c1cnccn1)N1CCc2onc(Cn3cccn3)c2C1` | -9.058 | -8.701 | -2.941 | 5.455 | -4.132 |
| 23 | `CN1C(=O)CCCC12CCCN(Cc1nccs1)C2` (centres unmarked) | -2.02 | -9.498 | 12.9 | 29.82 | -4.301 |
| 24 | `O=C(c1ccccn1)N(CCO)Cc1cc(Br)ccc1F` | 11.32 | -2.936 | -9.906 | 1.099 | -1.031 |
| 25 | `COCCOc1ccc(S(=O)(=O)Nc2cccnc2O)cc1C` | -6.394 | -13.82 | 2.303 | 22.58 | 2.041 |
| 26 | `Cc1csc2c(C3CCCN(C(=O)CCn4ccnc4)C3)nc(C)n12` (centres unmarked) | -18.28 | -49.04 | 3.398 | 2.857 | 1.916 |
| 27 | `CN(CC(=O)N1CCCC1c1noc(C2CC2)n1)C1CC1` (centres unmarked) | -8.006 | -0.2301 | 4.797 | 9.677 | 9.195 |
| 28 | `COc1cccc(CCC(=O)Nc2ccn(C)n2)c1OC` | 2.496 | -18.86 | 7.351 | 11.67 | 0.8696 |
| 29 | `O=S1(=O)C[C@@H]2[C@H](C1)N(Cc1cccc(O)c1)CCN2CC1CC1` | 2.734 | -32.48 | 4.884 | 15.62 | 4.469 |
| 30 | `CCCc1nc(N[C@H]2COC[C@@H]2N2CCCCC2)c2cnn(C)c2n1` | -9.808 | -20.84 | 6.796 | 26.51 | 9.392 |
| 31 | `O=C(CC1CC1)N1CCC2(CCCN(c3ncccn3)C2)CC1` | -2.383 | -6.022 | 1.112 | 21 | 14.29 |
| 32 | `CC(c1nc(-c2cccnc2)no1)N(C)CCCOc1ccccc1` (centres unmarked) | 0.9779 | 2.467 | 9.809 | 8.29 | 3.867 |
| 33 | `O=C(Cc1cccc(O)c1)N1CCCC(OCc2cccnc2)C1` (centres unmarked) | -12.9 | -18.71 | 5.076 | 17.65 | -0.4484 |
| 34 | `O=C(c1ccc(Cl)cc1)N1CCC2(C1)C(=O)Nc1ccccc12` (centres unmarked) | -14.8 | -6.567 | -9.474 | 19.31 | 6.509 |
| 35 | `Cc1csc(C(=O)N2CCC3(CC(N(C)c4ccncn4)C3)C2)c1` (centres unmarked) | -12.71 | 14.18 | 3.155 | 13.04 | 7.692 |
| 36 | `O=C(O)[C@H]1C[C@H](C(=O)NC2CC2)CN(Cc2ccc(-c3cc[nH]n3)s2)C1` | -2.952 | -14.72 | -4.194 | 9.211 | 6.404 |
| 37 | `Cn1cc(CN2CCn3cc(Cn4cccn4)nc3C2)cn1` | 6.39 | 8.323 | 7.519 | 20.51 | -7.317 |
| 38 | `COc1ccc(CNc2c(C)nn(C(C)C)c2C)cc1` | -0.6093 | 10.76 | -10.26 | 5.128 | 7.303 |
| 39 | `COc1cc(CNC(C)c2nnc3n2CCC3)cc(OC)c1` (centres unmarked) | 17.53 | -10.28 | 10 | -2.564 | 3.448 |
| 40 | `CN1CCN(Cc2cnn(-c3ccc(F)cc3)c2)[C@H]2CS(=O)(=O)C[C@H]21` | -0.6186 | -4.819 | 6.813 | -2.857 | 8.247 |
| 41 | `O=C(Cc1ccncc1)N1C[C@H]2CC[C@@H]1CN(Cc1cccnc1)C2` | -3.122 | 15.86 | -12.55 | -1.075 | 2.618 |
| 42 | `CC(C)CN1CC2(CCN(C(=O)c3nc4ncccn4n3)CC2)CC1=O` | -11.98 | -5.406 | 3.924 | 15.66 | 8.537 |
| 43 | `COC(=O)N1CCc2ccccc2C1C(=O)NCc1nc(C)no1` (centres unmarked) | -2.542 | -32.47 | 10.36 | 13.91 | 1.031 |
| 44 | `COc1ccccc1C1SCC(=O)Nc2c1c(=O)[nH]n2C1CCOCC1` (centres unmarked) | -7.015 | -31.42 | -53.79 | 18.42 | 4.094 |
| 45 | `CN1CCN(Cc2cccnc2)C2(CCN(Cc3ccoc3)C2)C1=O` (centres unmarked) | -0.5356 | -24.25 | -9.625 | 28.77 | 10.89 |
| 46 | `CCOc1ncnc2c1CCN(S(=O)(=O)c1ccccc1)CC2` | -1.128 | -9.964 | 3.342 | 9.901 | -6.533 |
| 47 | `COCCN1CC(=O)c2sc(NC(C)C)nc2C1` | -0.9429 | 27.63 | 3.253 | 20 | 0 |
| 48 | `CC(C)(Oc1ccc(F)cc1)C(=O)NCc1ccco1` | 5.065 | -21.73 | - | 4.225 | -0.6369 |
| 49 | `Cc1cc(CN(C)Cc2ncc(-c3ccccc3)o2)no1` | -17.24 | -12.31 | 4.714 | 9.574 | 2.02 |
| 50 | `CC(C)c1nn(C)c(N(C)C)c1CNCc1ccccc1CO` | -21.21 | -13.32 | 5.627 | 14.68 | 7.647 |
| 51 | `CCOc1ccc(Cl)c(C(=O)N2CCN(CC(O)CC)CC2)n1` (centres unmarked) | -9.331 | -4.152 | 0.129 | 6.957 | 2.299 |
| 52 | `CCN1CCn2c(C)cnc2C12CCN(C(=O)COC)CC2` | 3.786 | -23.24 | 5.412 | 22.94 | 4.327 |
| 53 | `CC(=O)Nc1ncc(S(=O)(=O)Nc2ccc(F)cc2F)s1` | 14.03 | -2.505 | 11.71 | 11.65 | 8.197 |
| 54 | `COc1ccc2c(c1)OCC(Cc1cc(N3CCCC3)cnn1)C2` (centres unmarked) | -3.673 | -8.757 | -3.194 | 38.71 | 19.75 |
| 55 | `COc1ccc(CCC2CCCN(CC(=O)O)C2)cc1` (centres unmarked) | 0.08063 | -26.47 | 0.9877 | 22.38 | 10.45 |
| 56 | `CC(C)Oc1ncnc2c1CCN(c1cc(C(F)(F)F)ncn1)CC2` | 4.786 | 5.333 | -3.871 | 13.89 | 9.453 |
| 57 | `CN(C)c1ncccc1C(=O)N1CCCC1Cn1cccn1` (centres unmarked) | 11.69 | -4.659 | 5.839 | 10.53 | 2.579 |
| 58 | `CC(=O)N1CCO[C@@H]2CN(S(=O)(=O)c3cccs3)CC[C@@H]2C1` | -16.94 | -13.69 | 2.927 | 5.66 | -4.444 |
| 59 | `O=C(NCC(O)COc1cccc(F)c1)C1(c2ccc(F)cc2)CC1` (centres unmarked) | -2.089 | -36.56 | 0 | 16.67 | 7.792 |
| 60 | `COCCN1CCCC(O)(CN2CCN(c3cnccn3)CC2)C1=O` (centres unmarked) | -10.65 | 2.753 | 1.19 | 19.44 | -2.041 |

For reference, 4 entries once more:

SMILES	ClpP1P2	Pks13 thioesterase	CoaBC	LiHisRS	TcHisRS
NCC1Cn2nnc(-c3cccc(F)c3)c2CO1 (centres unmarked)	-3.413	-13.59	-31.82	2.83	2.51
O=S1(=O)C[C@@H]2[C@H](C1)N(Cc1cccc(O)c1)CCN2CC1CC1	2.734	-32.48	4.884	15.62	4.469
COc1ccc(CNc2c(C)nn(C(C)C)c2C)cc1	-0.6093	10.76	-10.26	5.128	7.303
Cc1noc([C@H]2C[C@H]3OCC[C@H]3N(C3CCC3)C2)n1	-3.293	0.3431	-4.039	-1.064	5.025

Data taken from ChEMBL document CHEMBL3988442, “University of Dundee, Small-Polar-MMV Screening Library” (2021).